PubChem BioAssay AID1347423 (Functional Genomics Laboratory (NCATS/FGL), 2020)
Hit rate of the full screen: of about 52,000 sequences, about 210 (0.4%) were called active.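 How the source made its calls: active means gene whose silencing raises cell survival under the drug, median off-target-corrected z-score across its silencing RNAs 2 or more; inactive means the rest.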 The list shows a part of the results.

Test: Resistance to Poly (ADP-Ribose) Polymerase inhibitor: Gene Identification via Genome-wide siRNA Screen
Conditions: mouse BRCA2 R2336H ES cells, olaparib, CellTiter-Glo viability; stronger effect = higher value
In short: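 Mouse BRCA2 R2336H ES cells were reverse-transfected with siRNA (20 nM final), treated at 48 h with 500 nM olaparib, and read by CellTiter-Glo after 72 h. Scores: MAD-based z per siRNA, median per gene, seed off-target correction.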

Sequence	z-score
GGAUAACAAACCUGAAUCATT against 5430438H03Rik	inactive: 1.47
GGAAACUGUCAUCGAUAGGTT against Dlgap4	inactive: 0.146
GGCCAGUACUUUGCUAAACTT against Hnrpa1	inactive: 1.07
CCUGACCAAUGAAACCUUATT against Il22ra2	inactive: 0.404
GAUGUACUUGAUAAAGCCUTT against 0610033E06Rik	inactive: 0.412
GGACCACUCUGGUGGAUAATT against Simp-pending	inactive: -1.99
CGACAGUGAAUGCGCUAAGTT against Slc7a9	inactive: 1.03
GGCCUUGGUGAAAAUGCAGTT against Hrasls	inactive: -1.32
GCUGACUGAAUCACAAGCCTT against BC024139	inactive: 0.593
GGACGAUAAGCUUAGCCCUTT against Nfkbib	inactive: 1.22
CCGACCACUACACAAGCCUTT against Olfr449	inactive: 0.306
GCAUAUGACCUAAGAGUGATT against Slc6a7	inactive: 1.62
GCCCAUGAAAGAUGAUAUCTT against Ak2	inactive: 0.75
CCGCCUCCUGACAAAAGUGTT against Trim17	inactive: -0.235
GGAAGAGGAGAAGAAAAAGTT against Gcipip	inactive: -1.02
UCUCCUACCUAUGCACAUATT against Panx2	inactive: -0.944
GGCAUGGUUUGGAUUUGCGTT against Camk2b	inactive: 0.162
GCUCCUGGCAUUAUUUUUUTT against 6530401C20Rik	inactive: 1.04
CCAUAAGCACAUGAUUGAGTT against Prlpo	inactive: 1.14
GGUGGUUAGAUUGUCAUGCTT against V1rd7	inactive: 0.486
GCGAAUCACGCUGAAAGUCTT against Pdcd1lg1	inactive: -0.398
GGACACAAUUGAAAUAGACTT against Slc5a1	inactive: 0.991
CCUAUACCCUGGAAAGGCATT against F630022B06Rik	inactive: -0.944
GCGGAAGUCGACCUUUGAUTT against Cd164	inactive: -0.745
GGCAAGAUCUUCAAGUGAATT against Eef1g	inactive: 1.94
GCCCUUCAUGCUCAUGAGUTT against Hccs	inactive: -0.97

Sequence	z-score
GGCUGUGUAUUACUGCGCUTT against Vpreb2	inactive: -0.248
GGCCGAUUCCAUUGUACAGTT against 1700047I17Rik	inactive: -1.74
CCACUUCCGAUGAGCCAGATT against Mrps10	inactive: -2.38
GGGAUAAGGGAAGUUAGGUTT against 4732486J07Rik	inactive: 0.808
GGCUGUCCUUUUCCUCUUATT against A430107J06Rik	inactive: 0.489
GGACACAGAAAAUAUCCCATT against Sct	inactive: 0.572
GGAAGGUUUUACUCAGGCUTT against 1700034M03Rik	inactive: 0.372
CCUAAUGAAUGGCUAAAUATT against Aps	inactive: 0.693
GGAAACAAGAGUUGGAUAGTT against Pclo	inactive: -1.95
GGACCAUAAGCACAUGAUUTT against Prlpo	inactive: -0.85
GGAUCCUUCCAAAAGGAAATT against Alg3	inactive: 1.46
CCUUAGACAUCGAAGUAAUTT against Hrh4	inactive: 1.61
GCAACUUGUUAGUGGACUCTT against Olfr620	inactive: -1.67
GCAUUAAAGUAGAAGGUCUTT against 4631426E05Rik	inactive: -0.381
GCUAGGAGACAUUAGCUACTT against Slc13a4	inactive: 0.737
GGUUUUACACACUCCAUGATT against Olfr1246	inactive: -0.192
GGAAACCUCGCAUCAAUUCTT against Rybp	inactive: -0.672
GGUUUGUGAAAGAUAAUGGTT against Gzmf	inactive: 1.44
UCAUCGCAACCAUCCACAGTT against Olfr530	inactive: -0.606
GGAGCUUCCUGCUAUUUUATT against Tmem5	inactive: -0.134
GGGUUGGAUUCCUACCCAGTT against AA986860	inactive: 0.798
GCCUCUCAACUUAAUAACATT against 2700019D07Rik	inactive: -0.00102
GCUGAGGAAAUGCGAAGUCTT against 6530411B15Rik	inactive: 0.675
GGAUUCUUGGUAGCCCAAATT against Magea2	inactive: -1.34
CGUAUGGAUGGAAUACAAUTT against Rap2b	inactive: 0.482
CCUUACCACAUCCUUGUCGTT against 1110008B24Rik	inactive: -2.34

A second format for part of the listing above.

| Sequence | z-score |
| --- | --- |
| GGAAGAGGAGAAGAAAAAGTT against Gcipip | inactive: -1.02 |
| UCUCCUACCUAUGCACAUATT against Panx2 | inactive: -0.944 |
| GGCAUGGUUUGGAUUUGCGTT against Camk2b | inactive: 0.162 |
| GCUCCUGGCAUUAUUUUUUTT against 6530401C20Rik | inactive: 1.04 |
| CCAUAAGCACAUGAUUGAGTT against Prlpo | inactive: 1.14 |
| GGUGGUUAGAUUGUCAUGCTT against V1rd7 | inactive: 0.486 |
| GCGAAUCACGCUGAAAGUCTT against Pdcd1lg1 | inactive: -0.398 |
| GGACACAAUUGAAAUAGACTT against Slc5a1 | inactive: 0.991 |
| CCUAUACCCUGGAAAGGCATT against F630022B06Rik | inactive: -0.944 |
| GCGGAAGUCGACCUUUGAUTT against Cd164 | inactive: -0.745 |
| GGCAAGAUCUUCAAGUGAATT against Eef1g | inactive: 1.94 |
| GCCCUUCAUGCUCAUGAGUTT against Hccs | inactive: -0.97 |
| GGCUGUGUAUUACUGCGCUTT against Vpreb2 | inactive: -0.248 |
| GGCCGAUUCCAUUGUACAGTT against 1700047I17Rik | inactive: -1.74 |
| CCACUUCCGAUGAGCCAGATT against Mrps10 | inactive: -2.38 |
| GGGAUAAGGGAAGUUAGGUTT against 4732486J07Rik | inactive: 0.808 |
| GGCUGUCCUUUUCCUCUUATT against A430107J06Rik | inactive: 0.489 |
| GGACACAGAAAAUAUCCCATT against Sct | inactive: 0.572 |
| GGAAGGUUUUACUCAGGCUTT against 1700034M03Rik | inactive: 0.372 |
| CCUAAUGAAUGGCUAAAUATT against Aps | inactive: 0.693 |
| GGAAACAAGAGUUGGAUAGTT against Pclo | inactive: -1.95 |
| GGACCAUAAGCACAUGAUUTT against Prlpo | inactive: -0.85 |
| GGAUCCUUCCAAAAGGAAATT against Alg3 | inactive: 1.46 |
| CCUUAGACAUCGAAGUAAUTT against Hrh4 | inactive: 1.61 |
| GCAACUUGUUAGUGGACUCTT against Olfr620 | inactive: -1.67 |
| GCAUUAAAGUAGAAGGUCUTT against 4631426E05Rik | inactive: -0.381 |

Going on with the list:

Sequence	z-score
GGUUCUGGAGAACAGAGUCTT against 4930483J18Rik	inactive: -0.929
CCCGUUGCAUGUUAUAUGCTT against Gtpbp3	inactive: 0.671
GGACAAAGUGAAUUAUAGCTT against 2310075C12Rik	inactive: 0.703
GGGAAUUCUAUUCAACACUTT against Rps6ka5	inactive: 1.22
CGUUUAUGUGUAUUAACCATT against Ppid	inactive: -1.65
GCUUUAUCUAUUUCACCAATT against Olfr1442	inactive: 0.86
GGACUGAUAUCAUUUCUGATT against 4933425F06Rik	inactive: 0.792
GCCGCCACAAAGUUUGCAUTT against Spock3	inactive: -0.459
GGAAAUGACGACUACCAAGTT against D10Bwg0791e	inactive: 0.356
CCUCAUUGUGGUUACCCUCTT against Olfr93	inactive: -1.35
GGACAGUACGCAAAGACCUTT against Rxra	inactive: -0.924
GGGCGAAGAUACAAGUGACTT against Tnp2	inactive: -1.34
GGCCUGCAUGGAACAAAUGTT against Gpr100	inactive: -2.15
GCUUAGAGCAUUUCAGUCUTT against 2810406C15Rik	inactive: -1.95
GGACCACCUUUUGGACAAATT against V1ri3	inactive: -2.01
GGAAAAGGUCCUGUGCUGUTT against Abhd2	inactive: 0.338
CGGAUAUCACUCUGAGAAGTT against Loxl4	inactive: -0.629
GGAAGAGAGCAUUAAGCCCTT against 1200009C21Rik	inactive: -0.475
GGAGACAGAAUUCAAAACUTT against P2ry1	inactive: 1.46
GGCUUUGUGGAUUUUGAAGTT against Cabp4	inactive: 0.312
GCCAUUAAUAAUCAGUACUTT against Sh2bpsm1	inactive: 0.686
CGUAGAAAGCUCAUUAUUUTT against Clmn	inactive: -0.286
CAACUCCGGAAGACCAGGATT against AW146299	inactive: 2.02
GCUCUGUUACUAUUUGAAUTT against Cts6	inactive: 0.662
GGCUAAGACUCUCUGAAAUTT against F2rl1	inactive: -0.113
CCAGUCACUAUUUGAGUGUTT against Erg	inactive: 0.122

Sequence	z-score
GGAAAGACCAAAUCAGAUGTT against Arid5a	inactive: -1.26
GGAAUUCCAGUUUCUUCAATT against Tle2	inactive: 1.06
GGAUCCAAGGGCAAAAGAUTT against Siat7a	inactive: -1.18
GCGUGUGAUUAAUAAAGUUTT against Vps54	inactive: 0.999
GCCAUUAUAUAGUCCUACCTT against Klf1	inactive: 0.276
GCAAAGAAGCUCUUUAGAGTT against Hoxc5	inactive: 0.595
GGGCUGAAAGACUCAAAGCTT against Olfr577	inactive: -0.529
CCGAAUGUUCCAUGUUUGUTT against Lrrc5	inactive: 1
GGACAAUCCUGUCUUCCAGTT against Paox	inactive: 2.02
GGAGAGAUUAAUUUCUGUATT against 4430402I18Rik	inactive: 0.0876
GGAAUUAGAGAACUUAGUUTT against Gclm	inactive: -0.606
GGAUUUAGCCAUGGAUUUCTT against D030014N22Rik	inactive: 0.105
GGCACUGUAAAUGUACUCATT against Rbak	inactive: 1.36
GGAAUGUCAGUAAUCAGUGTT against Cox10	inactive: -0.306
GGAUUUUAGCUGUUCUUGATT against Enpp1	inactive: 0.431
GCGAAGUGGACAUCGUUGUTT against Ikbkb	inactive: 0.516
GGAAGCUUCCUAAUUCUUGTT against Slc16a1	inactive: -1.31
CGGGAACAAAUCUAAAAUGTT against E130310N06	inactive: 0.729
GGAAGCAGAGAAAAUCCUGTT against Fbxl12	inactive: -0.466
GGUAUUUAGGUUGAUAACATT against Takrp	inactive: -0.726
CAAAACCAUCCUUGGAAGUTT against Mrgpra8	inactive: 1.8
GGAUAGAAAACAGUAUCUGTT against 2310009E04Rik	inactive: -0.09
GGGCAUCAAGUGUAAAAAATT against Crsp9	inactive: -0.181
GCAACACAAGAUUGUAUUGTT against D2Ertd145e	inactive: -2.55
GGAAACUGGAAACAAAACATT against AI429152	inactive: -0.237
GCUUUAUGGGAGACAAAGGTT against 1700022I11Rik	inactive: 0.67
